Reference: PubChem BioAssay AID2551 (National Center for Advancing Translational Sciences (NCATS), 2010)
About 17,000 (5.5%) of roughly 310,000 compounds were called active. Inconclusive means that the source gave no clear call. Such entries were picked first, then a sample of the others. Calls follow the shape of the dose curve; as a rule, active = well fitted inhibition curve with a large enough effect; inconclusive = small, poorly fitted or top-dose-only effect, or effect the other way; inactive = no such curve, though single readings can be large or run the other way. Potencies beside an inconclusive call are fits to weak or partial responses and may not hold up.

Chains of the proteins cited; added tags and fusions are not shown. Lines headed by an entry give the natural chain unless they say otherwise; changes in a name come on top.
UniProt P51450: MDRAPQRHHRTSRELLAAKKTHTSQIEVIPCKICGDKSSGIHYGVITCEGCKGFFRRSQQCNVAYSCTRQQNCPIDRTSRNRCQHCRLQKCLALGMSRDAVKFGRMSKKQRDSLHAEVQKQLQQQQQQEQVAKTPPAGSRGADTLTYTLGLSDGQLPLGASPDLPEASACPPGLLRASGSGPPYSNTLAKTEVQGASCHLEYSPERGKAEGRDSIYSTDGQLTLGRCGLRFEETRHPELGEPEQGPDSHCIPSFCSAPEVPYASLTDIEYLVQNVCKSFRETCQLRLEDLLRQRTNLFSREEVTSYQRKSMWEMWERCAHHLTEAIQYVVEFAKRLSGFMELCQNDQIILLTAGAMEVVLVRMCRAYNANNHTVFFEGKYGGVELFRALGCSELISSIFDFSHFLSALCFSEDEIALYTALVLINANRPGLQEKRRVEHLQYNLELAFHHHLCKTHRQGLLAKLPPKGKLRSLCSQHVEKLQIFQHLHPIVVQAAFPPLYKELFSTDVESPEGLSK

The compounds below were run against Nuclear receptor ROR-gamma (Mus musculus) (UniProt P51450) (assay: qHTS for inhibitors of ROR gamma transcriptional activity). Conditions: Drosophila S2 Gal4-RORgamma UAS-luciferase reporter, 20 h; activity change, negative = inhibition: at 53.6 µM (top of the series).
Summary of the method: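 Luciferase reporter read in Schneider cells carrying Gal4-RORγ (mouse) and UAS-Photinus luciferase; cells given compound 1 h before 700 uM copper sulfate induction, then incubated 20 h at ambient temperature.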
% is scaled to controls: 0 for no effect and ±100 for the full control effect; potency is read from the fitted curve at half-maximal effect.
Also: nearly all actives have a fitted effect of over 60% in size.

Row | Compound | Potency | activity change, negative = inhibition
1 | CCCn1c(C)cc(C(=O)COC(=O)CN=C2NS(=O)(=O)c3ccccc32)c1C | inconclusive: 35.5 µM [activator, single point] | 
2 | O=C(Nc1nc2c(F)cc(F)cc2s1)c1ccccn1 | active: 0.224 µM | 
3 | Cc1ccc(C(C(=O)NCc2ccco2)N(C(=O)CNC(=O)c2cccs2)c2c(C)cc(C)cc2C)cc1 (stereo unspecified) | inconclusive: 35.5 µM [inhibitor, single point] | 
4 | CC(C)C(=O)NC(=S)Nc1ccc(S(=O)(=O)NC2CCCCC2)cc1 | inconclusive: 28.2 µM [inhibitor, partial curve, poor fit] | 
5 | Cc1ccc(N(C(=O)CNC(=O)c2ccco2)C(C(=O)NCC2CCCO2)c2ccccc2)cc1C (stereo unspecified) |  | inactive: 7.53%
6 | COc1ccc(C2=NNC(c3cccnc3)=Nc3ccc(OC)cc32)cc1 | inconclusive: 2.24 µM [activator, full curve, poor fit] | 
7 | CCOc1ccc(C(=O)NNC2CC(=O)N(Cc3ccc(Cl)cc3)C2=O)cc1OC (stereo unspecified) | active: 3.16 µM | 
8 | N#C/C(=C(/O)COC(=O)CSc1ccc2ccccc2c1)c1nc2ccccc2[nH]1 | active: 7.08 µM | 
9 | CCN=c1scc(C)n1/N=C/c1ccc(O)c(O)c1O | active: 3.55 µM | 
10 | CCOC(=O)C1CCN(Cc2ccc(O)c3ncccc23)CC1 | active: 2.82 µM | 
11 | COc1ccc([N+](=O)[O-])cc1/C=N/NC(=O)CNC(=O)C(c1ccccc1)c1ccccc1 | inconclusive: 3.16 µM [inhibitor, single point] | 
12 | C=CCN1C(=O)C(Cc2ccc(F)cc2)S/C1=N/N=C/c1cccs1 (stereo unspecified) |  | inactive: -0.193%
13 | COC(=O)C1=C(CSc2nccn2C)NC(=O)NC1c1cc(C)ccc1C (stereo unspecified) | inconclusive: 5.01 µM [inhibitor, full curve] | 
14 | O=C(COC(=O)C1CC1)c1c[nH]c2ccccc12 | inconclusive: 35.5 µM [activator, single point] | 
15 | CN(CCNC(=O)c1cc2c(=O)n(C)c3ccccc3c2n1C)Cc1ccccc1 | active: 11.2 µM | 
16 | COc1ccc(/C=C/C(=O)NC(C)(C)C)cc1S(=O)(=O)N1CCOCC1 |  | inactive: 2.05%
17 | O=S(=O)(Nc1cccc(-c2cn3cccnc3n2)c1)c1ccc(Cl)cc1 | inconclusive: 11.2 µM [activator, partial curve] | 
18 | CCn1c2ccccc2c2cc(NC(C)=O)ccc21 |  | inactive: -2.36%
19 | COc1ccc2c(c1)c(N=NC(N)=S)c(O)n2CC(=O)c1ccccc1 | inconclusive: 1.26 µM [inhibitor, full curve, poor fit] | 
20 | O=C(Nc1ccc([N+](=O)[O-])cn1)c1ccc2c(c1)OCO2 | inconclusive: 0.891 µM [activator, full curve] | 
21 | O=C(NCC1COc2ccccc2O1)C1C2C=CC3(CN(Cc4ccccc4Cl)C(=O)C13)O2 (stereo unspecified) | inconclusive: 0.794 µM [activator, single point] | 
22 | CCOc1ccc(NC(=O)c2cccc(OC(=S)N3CCC(C)CC3)c2)cc1 |  | inactive: -25%
23 | C=CCN1N=C(/C=C/c2ccc(C)cc2)CCC1=O | inconclusive: 5.62 µM [activator, partial curve] | 
24 | Cc1cc(N/C=C/C(=O)c2ccccc2)ccc1Br | inconclusive: 14.1 µM [inhibitor, single point] | 

Row | Compound | Potency | activity change, negative = inhibition
25 | Cc1cc(C)c2sc(NNC(=O)C3COc4ccccc4O3)nc2c1 (stereo unspecified) | active: 2.82 µM | 
26 | COc1ccccc1NC(=O)c1c(N=Cc2ccccc2O)cnn1C | inconclusive: 15.8 µM [inhibitor, single point] | 
27 | CC(Sc1ccccn1)C(=O)Nc1ccccc1 (stereo unspecified) | inconclusive: 11.2 µM [activator, partial curve, poor fit] | 
28 | Brc1ccc(-c2nnc(-c3ccccc3)o2)o1 | inconclusive: 0.0089 µM [activator, full curve] | 
29 | COc1ccc(OC)c(C(=O)COC(=O)c2cc(C)oc2C)c1 | inconclusive: 17.8 µM [activator, single point] | 
30 | COC(c1ccccc1)c1nnc(CCC(=O)N2CCCCCCC2)o1 (stereo unspecified) |  | inactive: 7.35%
31 | O=C(c1cc2ccccc2oc1=O)N(Cc1ccc2c(c1)OCO2)Cc1ccco1 | inconclusive: 20 µM [activator, single point] | 
32 | CCCCn1nc(NS(=O)(=O)c2cccc3nonc23)c2cc3cccc(C)c3nc21 | inconclusive: 35.5 µM [activator, single point] | 
33 | CC1=C(C(=O)OC2CCCCCCC2)C(c2cccc(O)c2)NC(=O)N1 (stereo unspecified) | inconclusive: 6.31 µM [activator, single point] | 
34 | Cc1ccc(/C=C/C(=O)N2CCN(c3cccc(C(F)(F)F)c3)CC2)cc1 | inconclusive: 0.178 µM [activator, full curve, poor fit] | 
35 | O=C(NCC(c1cccs1)N1CCOCC1)c1ccccc1NS(=O)(=O)c1ccc(Cl)c([N+](=O)[O-])c1 (stereo unspecified) | inconclusive: 3.55 µM [inhibitor, single point] | 
36 | CC(=O)NCc1ccc(C(=O)CCl)cc1 | inconclusive: 22.4 µM [inhibitor, single point] | 
37 | O=C(Nc1nc(-c2cccc3ccccc23)cs1)c1ccc2c(c1)S(=O)(=O)c1ccccc1C2=O |  | inactive: 10.3%
38 | Cc1cccc(C)c1NC(=O)Cn1c(=O)n(CCC(=O)NCc2ccco2)c(=O)c2sccc21 |  | inactive: 2.7%
39 | Cc1ccc(C#CC[N+]2(C)CCCCC2)cc1 |  | inactive: 28%
40 | Cc1cc2ncn(C(=O)c3c(-c4ccccc4)noc3C)c2cc1C | inconclusive: 35.5 µM [inhibitor, single point] | 
41 | CCc1ccc(NC(=S)N(CCC(C)C)C2CCN(C(C)=O)CC2)cc1 | inconclusive: 15.8 µM [inhibitor, partial curve] | 
42 | O=C(Cc1ccc([N+](=O)[O-])cc1)N1N=C2CCCCC2C1(O)C(F)(F)F (stereo unspecified) | inconclusive: 0.891 µM [activator, full curve, poor fit] | 
43 | CCCCC1=NN(C(=O)c2cccnc2)C(O)(C(F)(F)F)C1 (stereo unspecified) | active: 10 µM | 
44 | O=C(Cn1nnc(-c2ccccc2)n1)c1ccccc1 | inconclusive: 2.82 µM [activator, full curve, poor fit] | 
45 | Cc1noc(C)c1S(=O)(=O)N(CC(=O)NCCc1ccccc1)c1ccc(C(C)C)cc1 |  | inactive: -6.11%
46 | CCN(CC)C(=O)C(=O)Nc1ccc(Oc2ccccc2)cc1 | inconclusive: 6.31 µM [activator, full curve, poor fit] | 
47 | BrC(/C=N/Nc1nc(N2CCOCC2)nc(N2CCOCC2)n1)=C/c1ccccc1 | inconclusive: 22.4 µM [inhibitor, single point] | 
48 | COC(=O)c1ccccc1S(=O)(=O)NNC(=O)c1ccccc1-n1cccc1 |  | inactive: -28.8%

Row | Compound | Potency | activity change, negative = inhibition
49 | N/C(=N\S(=O)(=O)c1ccccc1)c1ccc([N+](=O)[O-])cc1 | inconclusive: 11.2 µM [activator, partial curve] | 
50 | COc1ccc(CNC(=O)c2cc3ccccc3o2)cc1OC | inconclusive: 0.282 µM [inhibitor, single point] | 
51 | CCOc1ccc(C(=O)NC(=S)Nc2ccccc2N2CCCCC2)cc1[N+](=O)[O-] | inconclusive: 1 µM [inhibitor, single point] | 
52 | COC(=O)CSC1=C(C#N)C(c2ccc(C)cc2)C2=C(CCCC2=O)N1 (stereo unspecified) | inconclusive: 14.1 µM [inhibitor, single point] | 
53 | Nc1nnc(SCc2cccc(C(F)(F)F)c2)s1 | inconclusive: 11.2 µM [activator, partial curve] | 
54 | CCOc1cc2[nH]c(=S)n(CC3CCCO3)c(=O)c2cc1OCC (stereo unspecified) | active: 11.2 µM | 
55 | O=C(NC(=S)Nc1cc(S(=O)(=O)N2CCOCC2)ccc1N1CCOCC1)C1CCCC1 | inconclusive: 0.355 µM [inhibitor, full curve] | 
56 | c1ccc(CSc2ccc3nnc(-c4ccccn4)n3n2)cc1 |  | inactive: 0.882%
57 | O=C(N/N=C/c1cc([N+](=O)[O-])ccc1O)Nc1ccccc1 | active: 4.47 µM | 
58 | COc1ccc2c(c1)OC1=C(C(=O)CCC1)C2C1=C(O)CCCC1=O (stereo unspecified) | active: 11.2 µM | 
59 | CN(C)C(=O)CSc1nnc(C23CC4CC(CC(C4)C2)C3)o1 | inconclusive: 0.199 µM [activator, full curve, poor fit] | 
60 | On1c2c(c3c4nonc4ccc31)CCCC2 | inconclusive: 35.5 µM [inhibitor, single point] | 
61 | CCOC(=O)c1c(-c2ccccc2)nc2cc(C)ccn12 | active: 12.6 µM | 
62 | COc1ccc(CCNc2ccc([N+](=O)[O-])cn2)cc1 | inconclusive: 35.5 µM [activator, single point] | 
63 | COc1ccc2c(c1)nc(N)n2Cc1ccccc1 | inconclusive: 31.6 µM [inhibitor, single point] | 
64 | N#Cc1cc(-c2ccccc2)cnc1Cl | inconclusive: 35.5 µM [activator, single point] | 
65 | CC(C)CC(c1nnnn1C1CCCC1)N1CCN(c2ccccc2F)CC1 (stereo unspecified) | inconclusive: 17.8 µM [activator, single point] | 
66 | COc1ccc(-n2c(=S)[nH]c3cc(C(=O)NCCCN4CCCC4=O)ccc3c2=O)cc1 | inconclusive: 10 µM [inhibitor, partial curve] | 
67 | CC1=NN(C(=O)c2ccccc2Br)C(O)(c2cccnc2)C1 (stereo unspecified) | active: 5.62 µM | 
68 | CCCCc1ccc(NC(=S)N2CCN(C(=O)OCC)CC2)cc1 | active: 1.26 µM | 
69 | COc1ccc(CCNC(=O)Cc2cccc(C(F)(F)F)c2)cc1OC |  | inactive: -8.01%
70 | COc1ccccc1/C=c1\sc2nc(-c3ccccc3OC)nn2c1=O |  | inactive: -15.6%
71 | COc1cccc(OCCOc2ccc(/C=C3/SC(=S)NC3=O)cc2)c1 | inconclusive: 12.6 µM [inhibitor, single point] | 

Five compounds from above, ordered by formula weight, high to low.
Row | Compound | Potency | activity change, negative = inhibition
52 | COC(=O)CSC1=C(C#N)C(c2ccc(C)cc2)C2=C(CCCC2=O)N1 (stereo unspecified) | inconclusive: 14.1 µM [inhibitor, single point] | 
69 | COc1ccc(CCNC(=O)Cc2cccc(C(F)(F)F)c2)cc1OC |  | inactive: -8.01%
57 | O=C(N/N=C/c1cc([N+](=O)[O-])ccc1O)Nc1ccccc1 | active: 4.47 µM | 
53 | Nc1nnc(SCc2cccc(C(F)(F)F)c2)s1 | inconclusive: 11.2 µM [activator, partial curve] | 
64 | N#Cc1cc(-c2ccccc2)cnc1Cl | inconclusive: 35.5 µM [activator, single point] | 
